Test results taken from patent publication US20240034785A1, “RXR-ALPHA BINDERS AND RXR-ALPHA/PLK1 MODULATORS” (NUCMITO PHARMACEUTICALS CO. LTD., priority 2020, published 2024).

Amino acid sequences for entries named in this document (tags omitted). A change or cut given only in a name is not applied to a line headed by its entry.
UniProt P19793: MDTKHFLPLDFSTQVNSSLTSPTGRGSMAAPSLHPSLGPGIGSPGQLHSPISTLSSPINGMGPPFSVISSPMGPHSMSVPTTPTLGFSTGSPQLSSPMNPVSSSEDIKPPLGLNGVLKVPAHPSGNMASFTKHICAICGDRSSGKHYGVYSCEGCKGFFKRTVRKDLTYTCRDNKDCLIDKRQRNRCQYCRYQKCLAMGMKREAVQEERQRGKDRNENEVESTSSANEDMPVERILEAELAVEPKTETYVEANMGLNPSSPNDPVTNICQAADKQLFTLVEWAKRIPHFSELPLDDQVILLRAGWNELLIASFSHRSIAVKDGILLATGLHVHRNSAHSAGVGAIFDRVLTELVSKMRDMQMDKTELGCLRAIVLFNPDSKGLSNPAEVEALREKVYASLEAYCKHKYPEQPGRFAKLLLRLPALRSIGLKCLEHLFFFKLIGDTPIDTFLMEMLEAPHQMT

Molecular target: T1, polo-like kinase 1 (PLK1), full-length (human, UniProt P53350 1-603)
T1 construct: Endogenous, FLAG-tagged and His-tagged forms are merged here; also called FLAG-PLK1; Flag-PLK1
Assay: CoIP of FLAG-PLK1 with Myc-RXRα mutants in HeLa cells (FIG. 27)

binding	Substance
binds	RXRα mutated at Ser96 (from UniProt P19793) (receptor)
binds	RXRα mutated at Ser260 (from UniProt P19793) (receptor)

No constants are given. Whether binding was seen depends on the method and setting. Binding seen in cells or lysates may run through a third protein. Binding can be weak; no strength is given.
